Literature values, collected in article PMC12024457 (Antioxidants, 2025).

Details: water, room temperature, neutral pH; cited from earlier work

COc1cc(/C=C/C(=O)CC(=O)/C=C/c2ccc(O)c(OC)c2)ccc1O [Curcumin]
Solubility (μM): Insoluble [31]
